# Values of other authors as cited in patent US20080113063A1, “MICRONUTRIENT SUPPLEMENT” (priority 2006, published 2008).
# At least one structure is not confirmed: it was looked up by name or label, or the drawing left a doubt.
# Tests used:
# Avian broiler chicks = settings: cited from earlier work
# chicks = chicks 1 to 3 weeks of age, zinc deficient soy concentrate diet; cited from earlier work
compound,measurement,setting,value
"[Cl-].[Cl-].[OH-].[OH-].[OH-].[OH-].[OH-].[OH-].[OH-].[OH-].[Zn+2].[Zn+2].[Zn+2].[Zn+2].[Zn+2] [TBZC, tetrabasic zinc chloride]",zinc bioavailability relative to zinc in reagent-grade zinc sulfate heptahydrate,Avian broiler chicks,107%
same,bioavailability of the zinc compared with zinc sulfate heptahydrate,chicks,essentially the same
